Measurements reported in US6440696 (NEW ENGLAND MEDICAL CENTER, dated 2002).
Results are given in words; binding and its absence hold for the method and conditions named. Binding seen in cells or lysates may run through a third protein. Some entries that bind do so weakly or less than the wild type. Tags and fused reporters may be left off the sequences shown.

Chains of the proteins cited; added tags and fusions are not shown. Lines headed by an entry give the natural chain unless they say otherwise; changes in a name come on top. Residues count along the entry.
UniProt P03126: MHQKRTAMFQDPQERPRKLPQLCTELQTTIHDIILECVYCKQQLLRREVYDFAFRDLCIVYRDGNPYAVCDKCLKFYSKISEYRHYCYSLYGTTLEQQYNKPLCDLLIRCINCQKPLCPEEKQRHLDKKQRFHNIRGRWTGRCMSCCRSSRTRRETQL
GST-HPV16 E6: residues 8-158 of P03126
UniProt P06463: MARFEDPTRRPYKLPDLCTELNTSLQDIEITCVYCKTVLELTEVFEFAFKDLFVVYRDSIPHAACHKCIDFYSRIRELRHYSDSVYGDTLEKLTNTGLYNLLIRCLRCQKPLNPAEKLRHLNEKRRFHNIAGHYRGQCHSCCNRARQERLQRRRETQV

Columns and labels:
GST-HPV16 E6 (HPV16) [1] = molecular target: GST-HPV16 E6 (HPV16) (UniProt P03126); assay: pull-down of in vitro translated 35S-labelled protein on GST-HPV16 E6 (FIG. 3B)
[2] = molecular target: T1, E6TP1-C-194 (myc-tagged C-terminal 194 aa of E6TP1) (human) (UniProt O43166); assay: co-immunoprecipitation from 293T cells
T1 sequence: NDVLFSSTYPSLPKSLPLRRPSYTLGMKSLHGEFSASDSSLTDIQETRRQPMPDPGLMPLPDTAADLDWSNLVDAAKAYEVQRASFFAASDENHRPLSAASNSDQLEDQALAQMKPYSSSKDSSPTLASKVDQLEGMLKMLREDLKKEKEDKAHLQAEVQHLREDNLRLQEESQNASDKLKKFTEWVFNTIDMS

[3] = molecular target: T1, E6TP1-C-194 (myc-tagged C-terminal 194 aa of E6TP1) (human); assay: co-immunoprecipitation from Cos-7 cells: anti-myc 9E10 IP, anti-FLAG Western blot
GST-HPV16 E6 (HPV16) [4] = molecular target: GST-HPV16 E6 (HPV16) (UniProt P03126); assay: in vitro pull-down
GST-HPV16 E6 (HPV16) [5] = molecular target: GST-HPV16 E6 (HPV16) (UniProt P03126); assay: pull-down on GST-HPV16 E6 (FIG. 3B)
GST-HPV16 E6 (HPV16) [6] = molecular target: GST-HPV16 E6 (HPV16) (UniProt P03126); assay: in vitro pull-down with truncations of E6TP1α
HPV16 E6 protein (HPV16) [7] = molecular target: HPV16 E6 protein (HPV16) (UniProt P03126); assay: in vitro GST pull-down
HPV18 E6 protein (HPV18) [8] = molecular target: HPV18 E6 protein (HPV18) (UniProt P06463); assay: in vitro GST pull-down
HPV16 E6 protein (HPV16) [9] = molecular target: HPV16 E6 protein (HPV16) (UniProt P03126); assay: GST pull-down of in vitro translated 35S-labelled E6 (FIG. 3A)
HPV18 E6 protein (HPV18) [10] = molecular target: HPV18 E6 protein (HPV18) (UniProt P06463); assay: as above
HPV16 E6 protein (HPV16) [11] = molecular target: HPV16 E6 protein (HPV16) (UniProt P03126); assay: GST pull-down of in vitro translated 35S-labelled E6, SDS-PAGE and fluorography
HPV18 E6 protein (HPV18) [12] = molecular target: HPV18 E6 protein (HPV18) (UniProt P06463); assay: as above

Measured: binding

E6TP1α (full length E6-targeted protein 1, alpha isoform) (from UniProt O43166 1-1804)
binds: GST-HPV16 E6 (HPV16) [1]

FLAG-tagged HPV16 E6 (from UniProt P03126 9-158)
binds: [2] | [3]

B1: pGAD10 two-hybrid clone encoding the 194 carboxyl terminal amino acid residues of E6TP1 (other)
chain: T1 sequence
notes: also called set of eleven identical strongly positive clones
binds: GST-HPV16 E6 (HPV16) [4] | GST-HPV16 E6 (HPV16) [5] | GST-HPV16 E6 (HPV16) [6] | GST-HPV16 E6 (HPV16) [1]

B2: GST-E6TP1-C-378 (GST fusion protein of the C-terminal 378 residues of E6TP1) (protein)
chain: SSRHSASPVVFTSARSSPKEELHPAAPSQLAPSFSSSSSSSSGPRSFYPRQGATSKYLIGWKKPEGTINSVGFMDTRKRHQSDGNEIAHTRLRASTRDLRASPKPTSKSTIEEDLKKLIDLESPTPESQKSFKFHALSSPQSPFPSTPTSRRALHRTLSDESIYNSQREHFFTSRASLLDQALPNDVLFSSTYPSLPKSLPLRRPSYTLGMKSLHGEFSASDSSLTDIQETRRQPMPDPGLMPLPDTAADLDWSNLVDAAKAYEVQRASFFAASDENHRPLSAASNSDQLEDQALAQMKPYSSSKDSSPTLASKVDQLEGMLKMLREDLKKEKEDKAHLQAEVQHLREDNLRLQEESQNASDKLKKFTEWVFNTIDMS
binds: HPV16 E6 protein (HPV16) [7] | HPV18 E6 protein (HPV18) [8] | HPV16 E6 protein (HPV16) [9] | HPV18 E6 protein (HPV18) [10] | HPV16 E6 protein (HPV16) [11] | HPV18 E6 protein (HPV18) [12]

B3: E6TP1-C-378 (myc-tagged C-terminal 378 aa of E6TP1) (protein)
chain: B2 chain
binds: GST-HPV16 E6 (HPV16) [5] | GST-HPV16 E6 (HPV16) [1]
